Data: patent publication US20240132485A1, “HETEROCYCLIC CULLIN RING UBIQUITIN LIGASE COMPOUNDS AND USES THEREOF” (CEMM - FORSCHUNGSZENTRUM FÜR MOLEKULARE MEDIZIN GMBH, priority 2020, published 2024)
“And” between values parts separate entries of the source, which are not always exact repeats. Equal entries are not always repeated. For some of these results: The name of at least one read-out is uncertain. For some of these results: For at least one compound, name, drawing or mass did not settle the structure.

Chains of the proteins cited; added tags and fusions are not shown.
UniProt Q16531, whole entry: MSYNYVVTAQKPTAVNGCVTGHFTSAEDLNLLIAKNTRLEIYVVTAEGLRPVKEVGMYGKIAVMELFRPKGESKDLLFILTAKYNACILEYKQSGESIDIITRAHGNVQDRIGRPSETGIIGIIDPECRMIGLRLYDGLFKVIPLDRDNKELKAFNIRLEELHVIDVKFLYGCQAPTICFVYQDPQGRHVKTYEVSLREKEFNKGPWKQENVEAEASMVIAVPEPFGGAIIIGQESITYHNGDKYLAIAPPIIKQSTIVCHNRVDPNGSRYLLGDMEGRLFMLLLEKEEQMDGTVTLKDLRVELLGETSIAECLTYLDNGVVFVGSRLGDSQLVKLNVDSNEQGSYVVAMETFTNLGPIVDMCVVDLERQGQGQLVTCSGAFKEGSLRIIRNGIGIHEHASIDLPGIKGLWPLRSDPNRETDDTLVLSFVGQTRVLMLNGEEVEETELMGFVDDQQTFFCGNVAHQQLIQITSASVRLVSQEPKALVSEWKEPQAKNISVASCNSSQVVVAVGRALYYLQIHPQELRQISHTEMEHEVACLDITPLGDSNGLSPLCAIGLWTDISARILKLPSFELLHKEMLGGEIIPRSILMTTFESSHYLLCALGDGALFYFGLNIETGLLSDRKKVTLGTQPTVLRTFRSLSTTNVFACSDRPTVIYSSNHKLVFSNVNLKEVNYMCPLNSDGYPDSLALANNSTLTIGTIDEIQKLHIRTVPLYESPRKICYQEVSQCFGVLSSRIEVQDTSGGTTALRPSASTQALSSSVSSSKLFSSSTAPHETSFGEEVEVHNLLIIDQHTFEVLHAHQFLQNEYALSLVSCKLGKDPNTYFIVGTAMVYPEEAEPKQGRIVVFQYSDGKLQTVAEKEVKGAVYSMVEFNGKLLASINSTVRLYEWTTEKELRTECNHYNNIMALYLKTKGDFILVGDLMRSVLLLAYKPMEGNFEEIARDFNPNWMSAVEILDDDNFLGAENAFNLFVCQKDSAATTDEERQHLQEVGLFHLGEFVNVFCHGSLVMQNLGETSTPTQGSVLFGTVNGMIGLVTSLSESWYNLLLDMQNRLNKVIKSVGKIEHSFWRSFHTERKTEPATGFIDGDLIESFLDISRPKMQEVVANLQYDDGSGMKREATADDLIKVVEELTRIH
UniProt Q9NYV4, whole entry: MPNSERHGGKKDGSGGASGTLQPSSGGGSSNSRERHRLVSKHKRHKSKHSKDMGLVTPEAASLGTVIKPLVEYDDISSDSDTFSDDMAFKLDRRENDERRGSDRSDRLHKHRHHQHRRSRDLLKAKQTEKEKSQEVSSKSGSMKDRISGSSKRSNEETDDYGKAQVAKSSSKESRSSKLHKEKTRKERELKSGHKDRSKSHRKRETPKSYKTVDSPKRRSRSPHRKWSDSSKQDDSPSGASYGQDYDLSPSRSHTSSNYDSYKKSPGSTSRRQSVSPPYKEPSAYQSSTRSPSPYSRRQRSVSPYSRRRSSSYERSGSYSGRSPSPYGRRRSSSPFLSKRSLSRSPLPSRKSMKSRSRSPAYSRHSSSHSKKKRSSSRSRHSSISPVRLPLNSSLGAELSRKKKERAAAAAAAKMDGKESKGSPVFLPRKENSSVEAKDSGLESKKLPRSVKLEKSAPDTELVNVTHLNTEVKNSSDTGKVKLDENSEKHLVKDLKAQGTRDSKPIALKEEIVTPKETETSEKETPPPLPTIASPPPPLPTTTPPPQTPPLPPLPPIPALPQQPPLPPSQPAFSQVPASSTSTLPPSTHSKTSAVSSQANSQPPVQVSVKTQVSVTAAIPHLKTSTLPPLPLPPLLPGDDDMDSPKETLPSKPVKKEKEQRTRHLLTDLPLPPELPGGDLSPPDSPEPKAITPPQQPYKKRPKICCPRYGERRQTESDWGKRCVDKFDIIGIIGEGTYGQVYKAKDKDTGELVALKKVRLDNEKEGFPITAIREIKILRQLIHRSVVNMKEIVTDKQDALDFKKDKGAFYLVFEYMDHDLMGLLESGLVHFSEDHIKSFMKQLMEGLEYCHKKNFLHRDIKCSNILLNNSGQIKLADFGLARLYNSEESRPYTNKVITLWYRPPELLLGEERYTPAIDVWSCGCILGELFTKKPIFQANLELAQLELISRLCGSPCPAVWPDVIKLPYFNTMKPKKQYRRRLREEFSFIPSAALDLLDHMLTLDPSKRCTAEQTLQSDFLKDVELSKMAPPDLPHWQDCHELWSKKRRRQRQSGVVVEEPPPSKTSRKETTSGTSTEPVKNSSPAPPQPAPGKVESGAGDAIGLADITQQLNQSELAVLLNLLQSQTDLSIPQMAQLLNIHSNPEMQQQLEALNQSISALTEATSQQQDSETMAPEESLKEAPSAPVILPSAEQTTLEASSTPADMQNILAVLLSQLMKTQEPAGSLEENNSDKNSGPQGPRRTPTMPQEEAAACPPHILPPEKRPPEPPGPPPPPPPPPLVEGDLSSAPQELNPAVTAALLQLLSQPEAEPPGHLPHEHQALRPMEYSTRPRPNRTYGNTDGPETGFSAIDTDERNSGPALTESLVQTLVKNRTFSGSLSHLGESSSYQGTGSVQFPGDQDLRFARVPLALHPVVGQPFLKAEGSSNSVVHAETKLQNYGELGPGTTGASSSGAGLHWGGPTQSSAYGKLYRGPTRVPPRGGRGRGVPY

Experiments:
[1] = system: KBM7 cells (wild-type); test: KBM7 CTG EC50 assay (UBE2M wild-type); type: cell-based, human; settings: ratio of anti-proliferative activity in KBM7 wild-type versus UBE2M knock-out cells (fold)
Text: This is a cell viability assay to measure the desired therapeutic effect, i.e. killing of cancer cells. The UBE2M mutant cell line has impaired activity of the Cullin-RING ligase system due to a hypomorphic mutation in UBE2M, which is required for activation of these E3 ligases. By comparison with WT cells, it is possible to estimate the contribution of Cyclin K degradation (which is reduced in UBE2M mut cells) compared to kinase inhibition of CDK12 (which is unaffected in UBE2M mut cells). Since the UBE2M mutation only reduces CRL function without fully abrogating it, this assay may slightly underestimate the effect of degradation because, at high compound concentrations, degradation may still be observed.
KBM7 cells (wild-type or harboring α hypomorphic UBE2M mutation (Mayor-Ruiz et al., 2019)) were seeded in a white opaque 384-well plate at a density of 1000 cells per well in duplicate, in full medium (IMDM+10% FBS+1% penicillin-streptomycin). Cells were treated with compounds in a 10-point titration with a dilution factor of 1:4 (range: 0 to 20 μM). After 72 h of incubation, the cell viability was determined using the CellTiter-Glo® 2.0 reactant (Promega), pre-diluted 1:4 in mQ water. The luminescence signal was measured using the multimode plate reader EnVision 2105 (Perkin Elmer).

[2] = molecular target: T1, DDB1-CDK12/Cyclin K ternary complex (Homo sapiens, UniProt Q16531+Q9NYV4); test: NanoBRET fold-change assay (HaloTag_CDK12 / NanoLuc_DDB1 in HEK293T); type: cell-based; settings: 10 μM compound, 10 minutes
T1 construct: expressed in transfected cells; host or cells: HEK293T wildtype cells, transient PEI transfection
Protocol: This assay measures the interaction/recruitment of CDK12/Cyclin K to DDB1, mechanistically validating the molecular glue pharmacology.
HEK293T wildtype cells are seeded 800 k cells/well (DMEM+10% FBS+1% PS) in a 6-well plate and allowed to attach for ˜7 hours followed by a transient transfection of 1.5 μg HaloTag_CDK12 Plasmid [Table 1] and 0.15 μg NanoLuc_DDB1 plasmid [Table 1] per well using PEI. Cells are incubated at 37° C., 5% CO2, harvested after 24 hours and resuspended in assay media (Opti-MEM Reduced serum media, no phenol red, 4% FBS, 1% PS). Cells are adjusted to 2.3×10^5 cells/ml and treated with HaloTag 618 Ligand at 100 nM or DMSO. 8000 cells are seeded per well in triplicates per compound in a white-walled 384-well plate, one negative control treated with DMSO instead of HaloTag 618 Ligand is seeded in triplicates and the 384-well plate is incubated at 37° C., 5% CO2 overnight. Compound stock solutions are prepared in Opti-MEM−/− (Opti-MEM I Reduced serum media, no phenol red) at 8× and used to treat the cells at a final concentration of 1× at 10 μM. Cells and compounds are incubated for 10 minutes at room temperature followed by addition of NanoBRET Nano-Glo substrate following manufacturer's protocols. The plate is shaken for 30 sec followed by immediate measurement of donor emission (NanoBRET Blue at 460 nm) and acceptor emission (BRET Deep Red at 647 nm) for 0.5 s.

Structure (SMILES) | Ratio UBE2M WT to KO [1] | NanoBRET fold-change Activity Class [2]
O=C(Cc1ccc2ncccc2c1)Nc1ncc(C(F)(F)F)s1 [Example 3-14, 2-(quinolin-6-yl)-N-(5-(trifluoromethyl)thiazol-2-yl)acetamide] | ~50 and 49.3 | –
O=C(Cc1cnc2ccccc2c1)Nc1ncc(C(F)(F)F)s1 [Example 3-36, 2-(quinolin-3-yl)-N-(5-(trifluoromethyl)thiazol-2-yl)acetamide] | 40 and 41.3 | –
O=C(Cc1c[nH]c2cccnc12)Nc1ncc(C(F)(F)F)s1 [Example 3-40, 2-(1H-pyrrolo[3,2-b]pyridin-3-yl)-N-(5-(trifluoromethyl)thiazol-2-yl)acetamide] | – | B (3-4 fold increase)
O=C(Cc1cn2cc(F)ccc2n1)Nc1ncc(C2CC2)s1 [Example 3-43, N-(5-cyclopropylthiazol-2-yl)-2-(6-fluoroimidazo[1,2-a]pyridin-2-yl)acetamide] | ~40 and 39.0 | –
